Test results: article PMC3795061
Positions count from the first letter of the chain named. These are yes or no findings as the source states them, for the method shown. Some results given as binding are weak or reduced against the parent protein; the word gives no strength. For some of these results: Tags and fused reporters may be left off the sequences shown.

Tests used:
Assay in all cases: far-Western, overlay or dot blot; 10 ug of each E. coli Rosetta extract on 12% SDS-PAGE, transferred to nitrocellulose, overlaid with 25 pmol/mL purified PPP1CC1 for 1 hr; bound PPP1CC1 detected with CBC3C (anti-PPP1CC), normalised to anti-His signal and compared with pET-TCTEX1D4; triplicates; only the binder purified
[1] = target: T1, TCTEX1D4 HA mutant (human) (UniProt Q5JR98)
T1 sequence: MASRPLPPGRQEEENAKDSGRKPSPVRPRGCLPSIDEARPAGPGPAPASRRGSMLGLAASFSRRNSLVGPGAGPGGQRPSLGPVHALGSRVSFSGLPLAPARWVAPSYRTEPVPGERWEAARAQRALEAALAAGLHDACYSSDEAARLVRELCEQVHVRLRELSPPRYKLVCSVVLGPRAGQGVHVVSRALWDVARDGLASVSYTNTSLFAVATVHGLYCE

[2] = target: T2, TCTEX1D4 HA+INL mutant (human) (UniProt Q5JR98)
T2 sequence: T1 sequence with V91I, S92N, F93L

[3] = target: T3, TCTEX1D4 INL mutant (human) (UniProt Q5JR98)
T3 sequence: T1 sequence with H85P, A86P, V91I, S92N, F93L

[4] = target: T4, wild type human TCTEX1D4 (pET-TCTEX1D4) (human) (UniProt Q5JR98)
T4 sequence: T1 sequence with H85P, A86P

Measured: binding

PPP1C gamma 1 isoform (PPP1CC1) (from UniProt P36873-1 1-323) (enzyme)
binds: all assays above
